These are yes or no findings as the source states them, for the method shown. In cells and extracts the contact can be indirect. Some results given as binding are weak or reduced against the parent protein; the word gives no strength. Tags and fused reporters may be left off the sequences shown.
Legend:
FLAG-tagged MIWI (mouse) = FLAG-tagged MIWI (mouse) (UniProt Q9JMB7); test: co-IP; HEK293T cells co-transfected with FLAG-tagged MIWI or MIWI^RK and GFP-tagged proteins; after 48 h immunoprecipitation with anti-FLAG M2 Affinity Gel; Western blotting with anti-GFP and anti-FLAG
[1] = biological target: FLAG-tagged MIWI^RK (mouse) (UniProt Q9JMB7); test: as above

By UniProt entry, the sequences of proteins in these tests, tags left out. Where a name states a change or a piece, a line headed by the entry shows the natural chain unless it says otherwise. Chains listed by the source or under a name are the forms on record and can include a tag or linker.
UniProt Q9JMB7: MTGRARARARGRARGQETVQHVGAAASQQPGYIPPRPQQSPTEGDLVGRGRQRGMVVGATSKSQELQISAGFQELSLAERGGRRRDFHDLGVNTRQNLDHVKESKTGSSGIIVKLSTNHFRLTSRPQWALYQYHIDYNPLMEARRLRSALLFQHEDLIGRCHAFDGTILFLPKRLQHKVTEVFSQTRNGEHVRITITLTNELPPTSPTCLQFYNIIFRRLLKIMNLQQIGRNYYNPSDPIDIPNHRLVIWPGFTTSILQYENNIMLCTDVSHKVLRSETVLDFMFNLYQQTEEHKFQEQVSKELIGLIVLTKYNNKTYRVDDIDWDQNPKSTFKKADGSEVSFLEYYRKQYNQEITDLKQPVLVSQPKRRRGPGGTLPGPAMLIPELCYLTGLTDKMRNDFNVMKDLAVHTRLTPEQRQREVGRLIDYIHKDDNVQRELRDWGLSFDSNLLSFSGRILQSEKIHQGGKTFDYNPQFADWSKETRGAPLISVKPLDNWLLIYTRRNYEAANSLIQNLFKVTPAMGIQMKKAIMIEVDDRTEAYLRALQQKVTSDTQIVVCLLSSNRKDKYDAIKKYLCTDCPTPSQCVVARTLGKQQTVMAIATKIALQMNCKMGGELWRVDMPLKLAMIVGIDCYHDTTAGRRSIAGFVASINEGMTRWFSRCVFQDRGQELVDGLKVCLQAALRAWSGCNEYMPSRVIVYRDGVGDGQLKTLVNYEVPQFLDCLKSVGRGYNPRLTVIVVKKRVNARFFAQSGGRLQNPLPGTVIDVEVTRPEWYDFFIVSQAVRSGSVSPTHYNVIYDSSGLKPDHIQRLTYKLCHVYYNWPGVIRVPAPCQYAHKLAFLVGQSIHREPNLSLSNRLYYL
FLAG-tagged MIWI^RK (Q9JMB7, form named): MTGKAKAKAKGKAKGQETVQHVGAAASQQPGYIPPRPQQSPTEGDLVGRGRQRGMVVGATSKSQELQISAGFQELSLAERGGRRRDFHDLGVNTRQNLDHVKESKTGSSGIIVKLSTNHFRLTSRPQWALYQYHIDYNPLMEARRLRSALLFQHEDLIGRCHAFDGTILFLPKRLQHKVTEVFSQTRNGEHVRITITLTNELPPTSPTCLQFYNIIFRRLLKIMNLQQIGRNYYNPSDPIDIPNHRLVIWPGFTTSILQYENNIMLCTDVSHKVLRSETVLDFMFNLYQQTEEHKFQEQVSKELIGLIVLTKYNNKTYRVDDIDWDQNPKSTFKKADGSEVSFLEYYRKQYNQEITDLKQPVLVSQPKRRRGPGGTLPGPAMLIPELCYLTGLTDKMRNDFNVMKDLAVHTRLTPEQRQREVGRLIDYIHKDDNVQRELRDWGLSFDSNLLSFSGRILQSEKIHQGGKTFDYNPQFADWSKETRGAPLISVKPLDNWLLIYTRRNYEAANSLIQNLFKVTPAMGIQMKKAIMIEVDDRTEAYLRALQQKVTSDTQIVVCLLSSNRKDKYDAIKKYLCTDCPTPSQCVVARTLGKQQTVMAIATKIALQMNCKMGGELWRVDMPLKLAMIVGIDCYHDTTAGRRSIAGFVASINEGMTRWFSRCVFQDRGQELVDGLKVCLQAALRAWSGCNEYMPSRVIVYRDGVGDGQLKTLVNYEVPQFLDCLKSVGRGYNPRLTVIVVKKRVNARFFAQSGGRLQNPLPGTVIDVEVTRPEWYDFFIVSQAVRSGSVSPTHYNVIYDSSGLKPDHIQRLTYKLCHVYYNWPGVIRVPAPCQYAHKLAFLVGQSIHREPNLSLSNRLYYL
UniProt P61407: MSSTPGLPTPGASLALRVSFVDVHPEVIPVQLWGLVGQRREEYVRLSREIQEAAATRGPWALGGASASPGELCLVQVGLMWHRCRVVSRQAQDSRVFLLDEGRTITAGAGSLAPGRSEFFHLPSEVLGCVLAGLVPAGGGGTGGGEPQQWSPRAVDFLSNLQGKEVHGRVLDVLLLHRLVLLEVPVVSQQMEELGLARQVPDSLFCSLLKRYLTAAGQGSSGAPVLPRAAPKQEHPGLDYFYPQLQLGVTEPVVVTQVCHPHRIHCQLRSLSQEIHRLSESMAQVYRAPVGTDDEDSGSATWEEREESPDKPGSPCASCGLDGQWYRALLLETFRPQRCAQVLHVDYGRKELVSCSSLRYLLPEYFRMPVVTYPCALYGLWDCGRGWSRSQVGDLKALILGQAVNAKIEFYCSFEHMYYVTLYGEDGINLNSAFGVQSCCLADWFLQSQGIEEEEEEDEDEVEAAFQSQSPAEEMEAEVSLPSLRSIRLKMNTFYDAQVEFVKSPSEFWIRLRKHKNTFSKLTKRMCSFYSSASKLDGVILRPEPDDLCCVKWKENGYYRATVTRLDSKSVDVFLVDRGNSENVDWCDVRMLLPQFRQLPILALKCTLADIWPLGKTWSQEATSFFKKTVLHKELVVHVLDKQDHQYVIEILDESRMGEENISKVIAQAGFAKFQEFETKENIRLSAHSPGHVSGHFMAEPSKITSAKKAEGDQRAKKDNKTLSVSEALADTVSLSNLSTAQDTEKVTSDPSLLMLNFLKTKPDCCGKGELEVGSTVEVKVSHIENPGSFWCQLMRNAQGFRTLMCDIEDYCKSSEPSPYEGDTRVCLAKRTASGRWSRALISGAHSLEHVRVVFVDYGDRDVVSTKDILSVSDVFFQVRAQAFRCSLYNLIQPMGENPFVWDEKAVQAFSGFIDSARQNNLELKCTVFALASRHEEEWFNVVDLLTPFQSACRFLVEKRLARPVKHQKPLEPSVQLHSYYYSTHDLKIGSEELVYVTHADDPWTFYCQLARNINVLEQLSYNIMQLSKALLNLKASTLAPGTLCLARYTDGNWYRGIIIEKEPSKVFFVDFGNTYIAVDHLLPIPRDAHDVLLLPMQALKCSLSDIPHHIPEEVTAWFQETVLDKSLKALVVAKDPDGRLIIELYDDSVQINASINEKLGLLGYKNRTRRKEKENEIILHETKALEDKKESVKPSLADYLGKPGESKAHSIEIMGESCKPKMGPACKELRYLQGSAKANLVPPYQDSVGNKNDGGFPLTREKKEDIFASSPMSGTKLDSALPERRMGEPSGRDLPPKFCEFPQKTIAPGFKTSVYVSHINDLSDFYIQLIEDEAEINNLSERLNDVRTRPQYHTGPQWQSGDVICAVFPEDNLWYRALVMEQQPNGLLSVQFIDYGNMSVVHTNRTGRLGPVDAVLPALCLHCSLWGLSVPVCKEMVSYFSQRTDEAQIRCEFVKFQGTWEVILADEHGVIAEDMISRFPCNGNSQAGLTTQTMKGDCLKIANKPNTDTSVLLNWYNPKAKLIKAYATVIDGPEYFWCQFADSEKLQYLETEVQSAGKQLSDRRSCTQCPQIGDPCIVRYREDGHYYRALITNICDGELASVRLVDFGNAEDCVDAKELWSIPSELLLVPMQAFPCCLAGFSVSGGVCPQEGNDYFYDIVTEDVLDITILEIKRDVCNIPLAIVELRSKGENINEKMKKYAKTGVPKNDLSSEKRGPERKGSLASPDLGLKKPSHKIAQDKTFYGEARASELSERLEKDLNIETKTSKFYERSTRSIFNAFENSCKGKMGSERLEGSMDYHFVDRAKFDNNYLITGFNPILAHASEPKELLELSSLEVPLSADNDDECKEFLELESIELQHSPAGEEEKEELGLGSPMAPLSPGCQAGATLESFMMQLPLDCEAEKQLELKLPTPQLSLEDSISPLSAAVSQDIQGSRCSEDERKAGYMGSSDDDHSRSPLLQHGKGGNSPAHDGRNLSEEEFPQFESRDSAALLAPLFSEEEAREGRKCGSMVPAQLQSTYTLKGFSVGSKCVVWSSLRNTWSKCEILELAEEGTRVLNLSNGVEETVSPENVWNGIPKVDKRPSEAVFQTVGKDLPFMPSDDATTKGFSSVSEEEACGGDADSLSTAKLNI
UniProt Q99MV7: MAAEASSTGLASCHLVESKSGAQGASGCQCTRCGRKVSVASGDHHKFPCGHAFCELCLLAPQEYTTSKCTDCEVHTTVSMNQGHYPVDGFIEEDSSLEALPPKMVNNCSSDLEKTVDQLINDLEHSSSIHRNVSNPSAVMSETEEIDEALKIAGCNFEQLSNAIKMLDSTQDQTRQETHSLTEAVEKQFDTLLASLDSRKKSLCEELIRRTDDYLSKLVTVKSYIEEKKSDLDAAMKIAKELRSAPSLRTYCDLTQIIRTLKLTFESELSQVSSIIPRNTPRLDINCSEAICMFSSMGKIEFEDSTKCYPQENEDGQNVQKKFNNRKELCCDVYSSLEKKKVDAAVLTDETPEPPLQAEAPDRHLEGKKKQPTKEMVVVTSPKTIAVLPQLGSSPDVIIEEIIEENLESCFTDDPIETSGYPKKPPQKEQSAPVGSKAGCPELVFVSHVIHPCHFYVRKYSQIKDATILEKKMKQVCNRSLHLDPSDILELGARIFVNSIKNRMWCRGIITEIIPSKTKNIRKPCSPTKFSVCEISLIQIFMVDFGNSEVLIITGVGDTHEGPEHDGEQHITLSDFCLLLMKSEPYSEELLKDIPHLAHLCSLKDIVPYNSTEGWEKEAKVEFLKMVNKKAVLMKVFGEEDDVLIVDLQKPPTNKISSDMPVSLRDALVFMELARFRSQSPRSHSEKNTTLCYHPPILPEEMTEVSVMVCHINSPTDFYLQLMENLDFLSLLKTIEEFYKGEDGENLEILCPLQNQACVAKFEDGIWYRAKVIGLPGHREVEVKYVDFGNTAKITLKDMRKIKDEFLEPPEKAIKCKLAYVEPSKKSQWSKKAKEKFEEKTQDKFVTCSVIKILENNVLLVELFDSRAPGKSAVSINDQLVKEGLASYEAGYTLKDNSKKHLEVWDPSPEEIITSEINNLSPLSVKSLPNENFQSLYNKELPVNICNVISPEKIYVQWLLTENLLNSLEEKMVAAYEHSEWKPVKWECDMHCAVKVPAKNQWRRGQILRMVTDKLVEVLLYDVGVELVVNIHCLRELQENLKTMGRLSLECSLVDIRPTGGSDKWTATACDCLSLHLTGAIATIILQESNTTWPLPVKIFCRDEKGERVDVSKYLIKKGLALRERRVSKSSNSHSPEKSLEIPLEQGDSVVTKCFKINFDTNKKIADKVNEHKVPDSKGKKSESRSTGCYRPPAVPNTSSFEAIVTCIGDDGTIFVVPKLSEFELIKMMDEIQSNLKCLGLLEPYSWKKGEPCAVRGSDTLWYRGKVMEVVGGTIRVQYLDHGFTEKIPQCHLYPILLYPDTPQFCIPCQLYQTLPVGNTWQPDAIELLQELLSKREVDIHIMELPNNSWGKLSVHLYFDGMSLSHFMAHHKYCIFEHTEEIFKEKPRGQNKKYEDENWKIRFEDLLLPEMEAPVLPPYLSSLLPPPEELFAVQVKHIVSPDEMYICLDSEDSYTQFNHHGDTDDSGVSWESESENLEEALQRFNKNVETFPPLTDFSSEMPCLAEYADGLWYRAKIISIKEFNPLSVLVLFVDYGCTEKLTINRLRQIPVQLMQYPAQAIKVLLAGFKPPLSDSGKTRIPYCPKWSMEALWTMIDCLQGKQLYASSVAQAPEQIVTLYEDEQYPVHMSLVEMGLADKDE

Row | Molecule | binding (FLAG-tagged MIWI (mouse)) | binding [1]
1 | GFP-tagged TDRD6 (from UniProt P61407 1-2134) | binds | –
2 | GFP-tagged RNF17 (from UniProt Q99MV7 1-1640) | – | binds
3 | GFP-tagged TDRD1 (protein, UniProt Q99MV1 1-1172) MMPRNNLEASTCKMAEPFNFEKKESKPPPQDPLRSPVAQHNHPTFRLKSPENGNTKNNFLLCEQNKQYLASQEDSSVVSSNPAVVNGEVGGSKGDRKPPPTGNPVSPLSLGNSSPPNQVKTKPSSNVTPEKSKKSHKLFENALSVNNPALFNSLGPPLRSTTCHRCGLFGSLRCSQCKQTYYCSTACQRRDWSSHSTICRPVQQSLNKLEDNKSPFETKAIEVKSEVDCPPGVTKEITAGAERVMFSDLRSLQLKKTMEIKGTVTEFKHPSNFYIQLYSSEVLENMNQLSTSLKETYANVVPEDGYLPVKGEVCVAKYTVDQTWNRAIVQAVDVLQRKAHVLYIDYGNEEMIPIDSVHPLSRGLDLFPPSAIKCCVSGVIPTAGEWSEGCVAAVKALLFEQFCSVKVMDILEEEVLTCAVDLVLQSSGKQLDHVLVEMGYGVKPGEQSSTEQSVDHSALEDVGRVTVESKIVTDRNALIPKVLTLNVGDEFCGVVAHIQTPEDFFCQQLQSGHKLAELQESLSEYCGHVIPRSDFYPTIGDVCCAQFSEDDQWYRASVLAYASEESVLVGYVDYGNFEILSLKRLCPIIPKLLDLPMQALNCVLAGVKPSLGIWTPEAVCVMKEMVQNRMVTVRVVGMLGTRALVELIDKSVAPHVSASKALIDSGFAIKEKDVADKGSSMHTASVPLAIEGPAEALEWTWVEFTVDETVDVVVCMMYSPGEFYCHFLKDDALEKLDDLNQSLADYCAQKPPNGFKAEIGRPCCAFFSGDGNWYRALVKEILPSGNVKVHFVDYGNVEEVTTDQLQAILPQFLLLPFQGMQCWLVDIQPPNKHWTKEATARFQACVVGLKLQARVVEITANGVGVELTDLSTPYPKIISDVLIREQLVLRCGSPQDSLMSRPANQHKQIDSHRVQASPSAEQWKTMELPVNKTIAANVLEIISPALFYAIPSEMSENQEKLCVLAAELLEHCNAQKGQPAYRPRTGDACCAKYTNDDFWYRAIVLETSESDVKVLYADYGNIETLPLSRVQPIPASHLELPFQIIRCSLEGPMELNGSCSQLVMELLRNAMLNQSVVLSVKAISKNVHAVSVEKCSENGMINIAENLVMCGLAENLTSKRKSASTKEIPHSRDCCCTELQKQIEKHEQILLFLLNNPTNQSKFTEMKKLLRS | binds | binds
4 | GFP-tagged STK31 (protein, UniProt Q99MW1 1-1018) MWGQRLFAGTAVAQSVSFPGLVQMDEDTHYNKVEDVVGSHVEDAVTFWAQNVSKNKDIMKIGCSLSEVCPLANSVFGNLDPKKIYGGLFSEDKCWYRCKVLKTISDDKCLVRYIDYGNTEILNRSDIVEIPPELQFSSIAKKYRLWGLQIPSGQEVTQFDQGRTFLGSLIFEKEIKMRIKATYQDGTVIAQAEYGTVDIGEEVAKKGFAEKCRLTSGIDACEAKKPDPNQLALRSLKNPIPLWGRRSNQSTFSRPKGHFNGRLTLDVKYETSAGNHVTFPKESLAAGDFNLGSNVSLAKIKQDQKLIEENEKLKTEKEVLLENYKALELKVEQTAQELQQEKTATMDLTKHLESTLKTCVGTRLKNLAAKVELLKEIRHINISIRFGNDLSDAMQVLDEGSFTTLASLNELEKIWAEYNVAQEKIQTCLNENEGNILIAERNEVQQKLFVAVDVFILEVDDLPLDKRLKTLQDLATSLESVYGKAKEGTNNSEETLRKFYDWQCTKREEFASIRSETEASLQHLVAWFQSSQKVFDLSLDEPLTSEDLIGNIDEILEKTESCVCKELELSLIEQGVIDKEIILSTYSQVLQKIHSEEKFIATLLSKYKDSVEFKKQMIDCLNKNPNVDYLLSIKKTLKGLKAQLRWKLVEKSNLEESDDHDGTEIEKIKQEITQLRNSVFQEIYHEREEYEKLNSLTQKWFPELPLLYPEIGLLKYMNSGGLLTMSLERDLLDTEPMKELSSKRPLVCSEVNGQPVLLKGYSVDVDTEGRVIQRAASYHRACGYAKEESGLLPLIFLFLCKSDPVAYLMVPYYPKANLSAVQASMPLTSEEALKVMKGVARGLHTLHSANIIHGSLHQNNVFALNREQGIVGDYDFTKSESQRASVNAMVGGLSLLSPELKTGKPPSASSDLYAYGCLFLWLSVQNQEFETNEDGIPKVDQFHLDDNVKSLLCSLIYFRSSMTAEQVLNAECFLLPKGKSVPIPEKEIECTQHSREDESKMESLDRYSEKTRNGEANP | binds | binds
5 | GFP-tagged PNLDC1 (protein, UniProt B2RXZ1 1-531) MDVGADEFEQSLPLLQELVAGADFVGLDIEFTGLRSNLSRPQQISLFDLPSEWYLKTRQSVQQFTICQIGLSMFSSIEGESNKYVAHSCNFFLFPTTFGILDSEFSFQASSVQFLNQYGFDYNKFLKNGIPYMNEEQEKKIKHSILRGNWRVRSSLDKDQIKVVIDKVTQWLDLAEEGDQMTLPGIAGFQAFEVQLVLRQALPNIWTVLKEEWVIVKKVSQPQRWYLEHASCDQVSCWKEQILLSARGFSVFFQMLVKAQKPLVGHNMMMDLLHLHEKFFRPLPESYDQFKQNIHSLFPVLIDTKNVTKDIWKELRFPRVSNLLEVYEVLSSNLNPTKDSGPVIIHARQCKKYAETKCPHEAAYDAFLCGSVLLKVAHLLLQRVHGNGAVHEPAFPQYLDVLAPYVNQVNLIRAGVPKINFSGPDYPSIRPPVLILTVKRWPGVSEQQVYREFQNLCKFDVRRFTRSQFLLLTNKFKDARSVLKEYRNHPTLQVSLYRSWRHSPNITCLLQVCSIVTTWAMIAFLLGRPMP | – | binds
6 | GFP-tagged MOV10L1 (protein, UniProt Q99MV5 1-1187) MIDDLIYFSNDAVTSTVLLNVGQEVIAVVEENKVSNGLKAIRVEAVSDKWEDDSKNSSKGLSDSSPRVLIGCVTSMLEGAGYISQTTYFSLESVCEGFHPCKGDWVEAEYWIRPGTWSSEAISVKPLRYKRVDKVCISSLCGRNGVIEDSIFFSLDSLKLPEGYIPRRHDIVNAVVVESSQSCYIWRALCMTPVKRDATLGEAPQEPYGALLLKNKGDIEVTRMTSFGTLKEGESKSIVIWIENKGKFSRELVSCRLANWDKAHQFRFETQGRSKSCPGAAAGSVPEGENVNSLNHHREDKTDEIPESRLANSTEISPDGCACKEESREKGNTPEKQEPEPGGLIPPGEKTHIVVTCSAKNPGRCKELLLLCFSDFLIGRHLEVSVVSSEEALIAVREPFSWKKPKSSQTLVSAKTTVVVTTQKRNSRRQLPSFLPQYPIPDRLKKCVEQKIDILTFQPLLAELLNMSNYKEKFSTLLWLEEIHAEIELKEYNMSRVVLKRKGDLLVLEVPGLAESRPSLYAGDKLILKSQEYNGHVIEYIGYVMEIHEEDVTLKLNPGFEQMYNFEPMDVEFTYNRTTSRRCHYALEQVIHLGVKVLFPEEIILQSPQVTGNWSLAQDTKNDGQSITNITRNDGQSMTKVTRNDSQSITNIIRNDGQSITNVTRNDGQPITKVTRNNSQSITNITRNDGQPITKNKKTVKDQTKHTTEERHVGTTDQPEKASSTAETMDEIQIPKARDKEFFNPVLNENQKLAVRRILSGDCRPLPYILFGPPGTGKTVTIIEAVLQVHYALPDSRILVCAPSNSAADLVCLRLHESKVPKPAAMVRVNATCRFEETIIDAIKPYCRDGEDIWRASRFRIIITTCSSAGLFYQIGVRVGYFTHVFVDEAGQASEPECLIPLGLISDINGQIVLAGDPMQLGPVIKSRLAMAYGLNVSMLERLMSRPAYLRDENAFGACGAYNPLLVTKLVKNYRSHSALLALPSRLFYHRELEVCADPKVVTSLLGWEKLPRKGFPLIFHGVRGNEAREGRSPSWFSPAEAVQVMRYCCLLARSVSSQVSSKDIGVITPYRKQVEKIKILLRNVDLTDIKVGSVEEFQGQEYLVIVISTVRSNEDRFEDDRYFLGFLSNSKRFNVAITRPKALLIILGNPHVLVRDPCFGALLEYSVSNGVYTGCDLPPELQALQK | binds | binds
7 | GFP-tagged TDRKH (protein, UniProt Q80VL1 1-560) MSTERTSWTNLSTIQKIALGLGIPASATVAYILYRRYRESREERLTFVGEDDIEIEMRVPQEAVKLIIGRQGANIKQLRKQTGARIDVDTEDVGDERVLLISGFPVQVCKAKAAIHQILTENTPVFEQLSVPQRSVGRIIGRGGETIRSICKASGAKITCDKESEGTLLLSRLIKISGTQKEVAAAKHLILEKVSEDEELRKRIAHSAETRVPRKQPISVRREEVTEPGGAGEAALWKNTNSSMGPATPLEVPLRKGGGDMVVVGPKEGSWEKPNDDSFQNSGAQSSPETSMFEIPSPDFSFHADEYLEVYVSASEHPNHFWIQIIGSRSLQLDKLVSEMTQHYENSLPEDLTVHVGDIVAAPLSTNGSWYRARVLGTLENGNLDLYFVDFGDNGDCALKDLRALRSDFLSLPFQAIECSLARIAPTGEEWEEEALDEFDRLTHCADWKPLVAKISSYVQTGISTWPKIYLYDTSDEKKLDIGLELVRKGYAVELPEDMEENRTVPNMLKDMATETDDSLASILTETKKSPEEMPHTLSCLSLSEAASMSGDDNLEDDLF | binds | –
8 | GFP-tagged TDRD5 (protein, UniProt Q5VCS6 1-1040) MSEQERIQDCLRKEIRSLLISTKDGLTPQQLEKEYLLMVGNHLPLRILGYRSTMELVLDMPDVVSVCPGGDGTVILKAIPDESTKGIASLVAKQRRSHKVRNSMPKGRPSICSGRVPYRGRVPPILPAVVKSELKDLLALSPVLLSDFEKAFARRFGRSFQYMQYGFLSMFEVLNAASDVISVEQTRAGSLLTLKKSVSEDKQRGWPAGKVFTQPFRMKQQGSYSTGFPVMKAHFSQPISNMEPPKQVLSMAKTPTFNSVEASRLNHTEKLNQLESTFKSVIAQIGPGGTVDPELKRKIQFVVSKFPQGLFISKLLGEFELTFKEQLSPKQLGFLNVTELVGALSDILRVEFSEERQDLLVFDADLKPLPSGGPLSSVRNSCLVQPDKKTEANPWTSSLSRNSLSTVAVKKTTWDCPLKNQKEPEQKIYKKPNLVVKPLQLQVETNKPQLSLSVANHDIPPDAVRAKKLCRLPPLDTSTLVGVFVEYIISPSQFYIRIYSRDSSELLEDMMIEMRRCYSNQLVSDRYIMPEYFIQPGHLCCVKISEDKWWYRVIIHRILGKKEVEVFYPDFGNIGTVQKSSLRFLKCCYTKLPAQAIPCSLAWVRPAEEHWTARAILHFQKLCGLKPLVGVVDEYIDGILNIFLCDTSSNEDVYFHHVLRTEGHAIVCRENAPSKGFRDFNPPALYTNASSAGDMVLTDLGHPAQQHYLNEDQEILQQAQQDINDGKCISYLKSAPKELLKDSKLSSLKTHKSCEEDPRWSILQPKDLKEENEDEVPTGMPCLESVTIGDDVWDENWLPLQAKMGKAGSPASQLFTSNLVGKKQYQTGGEMAQKDWCFSTSKDIWDDSWQPLGLANDVKGGIHTPEGPIAQEKNTSTTRIQQQPDLQYPLDSSTLPKLEEFYISLIKSQQSAERSQSEPASIQTHAGRAASKALSSTPAVGDSPENHSGSVESSPGSLKKEDVSNSRAEATAKDKSQGAIDQLSFILSPQHQISQKLYIPRSTATAVLGAAARLATSRSLLHWYPSVKGGKLEAERDGVK | binds | –

From publication PMC10681313
